{"sequences": {"note": "Sequences of proteins named here, by UniProt entry; tags and fusion partners are left off. Residues count along the entry.", "UniProt P06213, residues 28-1382": "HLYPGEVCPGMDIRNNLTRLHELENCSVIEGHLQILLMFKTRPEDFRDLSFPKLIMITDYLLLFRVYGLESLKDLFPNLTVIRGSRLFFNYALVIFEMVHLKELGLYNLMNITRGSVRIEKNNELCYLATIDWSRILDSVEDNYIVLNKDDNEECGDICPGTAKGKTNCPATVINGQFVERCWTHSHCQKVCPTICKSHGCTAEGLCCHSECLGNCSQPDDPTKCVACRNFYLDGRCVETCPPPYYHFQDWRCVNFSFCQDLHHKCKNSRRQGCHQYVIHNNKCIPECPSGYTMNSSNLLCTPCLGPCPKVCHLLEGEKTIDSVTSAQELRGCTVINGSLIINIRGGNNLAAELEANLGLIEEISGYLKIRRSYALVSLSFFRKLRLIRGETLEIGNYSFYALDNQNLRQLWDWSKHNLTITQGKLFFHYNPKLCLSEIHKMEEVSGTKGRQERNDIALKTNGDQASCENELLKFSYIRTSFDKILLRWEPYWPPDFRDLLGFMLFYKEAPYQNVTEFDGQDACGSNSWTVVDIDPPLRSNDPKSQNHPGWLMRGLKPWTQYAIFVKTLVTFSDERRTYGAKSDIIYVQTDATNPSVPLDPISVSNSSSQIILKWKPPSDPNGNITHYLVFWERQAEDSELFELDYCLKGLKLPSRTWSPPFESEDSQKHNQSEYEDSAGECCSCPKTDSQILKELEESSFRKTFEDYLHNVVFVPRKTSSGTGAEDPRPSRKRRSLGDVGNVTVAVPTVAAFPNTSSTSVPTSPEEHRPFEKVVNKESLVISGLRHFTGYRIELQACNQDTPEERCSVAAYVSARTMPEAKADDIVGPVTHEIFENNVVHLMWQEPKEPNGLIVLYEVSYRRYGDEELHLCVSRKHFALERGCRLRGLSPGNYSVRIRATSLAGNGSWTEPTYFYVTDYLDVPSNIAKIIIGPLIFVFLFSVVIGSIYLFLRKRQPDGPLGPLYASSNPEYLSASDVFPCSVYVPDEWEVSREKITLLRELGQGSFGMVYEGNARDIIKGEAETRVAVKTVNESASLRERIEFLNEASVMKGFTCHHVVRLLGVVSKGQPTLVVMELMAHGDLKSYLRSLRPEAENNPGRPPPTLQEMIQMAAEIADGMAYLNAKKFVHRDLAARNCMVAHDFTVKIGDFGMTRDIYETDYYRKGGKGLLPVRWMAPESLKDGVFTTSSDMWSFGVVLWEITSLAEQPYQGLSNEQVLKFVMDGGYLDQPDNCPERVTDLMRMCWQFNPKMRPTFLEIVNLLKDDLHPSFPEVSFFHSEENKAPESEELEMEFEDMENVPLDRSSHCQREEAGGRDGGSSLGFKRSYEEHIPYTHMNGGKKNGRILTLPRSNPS"}, "source": "paper PMC11162468", "key": {"IR-EGFP": {"target": "IR-EGFP (UniProt P06213)", "experiment": "affinity purification with mass spectrometry; anti-IR immunoprecipitates from nuclear extracts of H226Br cells stably expressing IR-EGFP (against EGFP) and of A549 cells stimulated with IGF2 (50 ng/mL, 3 h); gel bands that were differentially greater analysed by LC-MS/MS; proteins common to the two analyses"}, "[1]": {"target": "insulin receptor (IR) (human (endogenous in A549 and H226Br)) (UniProt P06213)", "experiment": "affinity purification with mass spectrometry; anti-IR immunoprecipitates from nuclear extracts of H226Br cells stably expressing IR-EGFP (against EGFP) and of A549 cells stimulated with IGF2 (50 ng/mL, 3 h); gel bands that were differentially greater analysed by LC-MS/MS; proteins common to the two analyses"}}, "note": "These are yes or no findings as the source states them, for the method shown. Binding seen in cells or lysates may run through a third protein. A yes stands for co-enrichment or nearness to the bait. Other partners may have been found.", "data": [{"substance": "nucleophosmin (NPM1) (from UniProt P06748-1 1-294)", "values": [{"measurement": "binding", "setting": "IR-EGFP", "value": "binds"}, {"measurement": "binding", "setting": "[1]", "value": "binds"}]}]}
